From paper PMC10214526, “Semisynthetic LC3 Probes for Autophagy Pathways Reveal a Noncanonical LC3 Interacting Region Motif Crucial for the Enzymatic Activity of Human ATG3” (ACS Central Science, 2023)
No constants are given. Whether binding was seen depends on the method and setting. Binding seen in cells or lysates may run through a third protein. Some results given as binding are weak or reduced against the parent protein; the word gives no strength.

Sequences of proteins named here, by UniProt entry; tags and fusion partners are left off. A change or cut given only in a name is not applied to a line headed by its entry.
UniProt Q9H1Y0: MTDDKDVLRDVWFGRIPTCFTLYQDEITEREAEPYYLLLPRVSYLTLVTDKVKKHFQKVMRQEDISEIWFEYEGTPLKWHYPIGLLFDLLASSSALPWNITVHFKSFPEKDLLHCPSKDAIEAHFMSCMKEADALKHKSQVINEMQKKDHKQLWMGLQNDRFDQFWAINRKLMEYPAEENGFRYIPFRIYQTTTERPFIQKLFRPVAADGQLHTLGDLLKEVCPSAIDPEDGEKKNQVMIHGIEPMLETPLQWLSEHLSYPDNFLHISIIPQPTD
UniProt Q676U5: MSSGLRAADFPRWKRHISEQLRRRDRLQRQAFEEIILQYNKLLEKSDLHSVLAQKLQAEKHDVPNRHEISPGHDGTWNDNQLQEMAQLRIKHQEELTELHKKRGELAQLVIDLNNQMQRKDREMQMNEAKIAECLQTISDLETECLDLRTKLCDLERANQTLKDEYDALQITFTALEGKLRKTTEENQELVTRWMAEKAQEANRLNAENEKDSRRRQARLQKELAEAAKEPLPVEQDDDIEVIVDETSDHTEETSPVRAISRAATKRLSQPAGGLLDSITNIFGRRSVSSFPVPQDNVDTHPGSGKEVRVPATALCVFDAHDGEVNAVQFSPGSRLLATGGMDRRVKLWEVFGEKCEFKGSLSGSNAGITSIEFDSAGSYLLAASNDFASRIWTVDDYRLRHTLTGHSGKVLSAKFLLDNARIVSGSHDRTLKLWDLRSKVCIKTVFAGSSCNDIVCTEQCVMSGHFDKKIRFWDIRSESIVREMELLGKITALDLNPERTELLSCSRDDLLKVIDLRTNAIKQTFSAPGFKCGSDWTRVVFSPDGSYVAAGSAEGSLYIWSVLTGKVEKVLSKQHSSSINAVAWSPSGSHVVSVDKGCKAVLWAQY

Key:
Experiment in all cases: co-IP; anti-FLAG co-IP of FLAG-ATG3 variants transiently expressed in HCT116 ATG3 knock-down cells (CRISPRi); immunoblotting for ATG5–ATG12 and ATG16L1
FLAG-ATG3 C264A (human) = FLAG-ATG3 C264A (human) (UniProt Q9NT62)
FLAG-ATG3 W107A (human) = FLAG-ATG3 W107A (human) (UniProt Q9NT62)
FLAG-ATG3 wt (human) = FLAG-ATG3 wt (human) (UniProt Q9NT62)
FLAG-ATG3 ΔLIR (human) = FLAG-ATG3 ΔLIR (human) (UniProt Q9NT62)

Measured: binding

ATG5-ATG12 complex (from UniProt Q9H1Y0 1-275; O94817 1-140)
binds: all assays above

ATG16L1 (from UniProt Q676U5 1-607)
binds: all assays above
